Measurements from patent EP4094756A1 (priority 2021, dated 2022).

Test: MTT assay (cell survival)
Details: monkey, vero cells

`CC(C)=CCC[C@]1(C)[C@@H](CC=C(C)C)C[C@]2(CC=C(C)C)C(=O)C(CC=C(C)C)=C(O)[C@@]1(C(=O)C(C)C)C2=O` [Hyperforin, hyperforin, reference compound] gave an MNTC of 2 µg/mL.
